Results are given in words; binding and its absence hold for the method and conditions named. In cells and extracts the contact can be indirect. Some results given as binding are weak or reduced against the parent protein; the word gives no strength. Where a sequence is shown, tags or fusion partners need not be part of it.
Biological target: T1, Xenopus Dvl2 (Xdsh), full-length, myc-tagged (Xenopus) (UniProt P51142)
T1 sequence: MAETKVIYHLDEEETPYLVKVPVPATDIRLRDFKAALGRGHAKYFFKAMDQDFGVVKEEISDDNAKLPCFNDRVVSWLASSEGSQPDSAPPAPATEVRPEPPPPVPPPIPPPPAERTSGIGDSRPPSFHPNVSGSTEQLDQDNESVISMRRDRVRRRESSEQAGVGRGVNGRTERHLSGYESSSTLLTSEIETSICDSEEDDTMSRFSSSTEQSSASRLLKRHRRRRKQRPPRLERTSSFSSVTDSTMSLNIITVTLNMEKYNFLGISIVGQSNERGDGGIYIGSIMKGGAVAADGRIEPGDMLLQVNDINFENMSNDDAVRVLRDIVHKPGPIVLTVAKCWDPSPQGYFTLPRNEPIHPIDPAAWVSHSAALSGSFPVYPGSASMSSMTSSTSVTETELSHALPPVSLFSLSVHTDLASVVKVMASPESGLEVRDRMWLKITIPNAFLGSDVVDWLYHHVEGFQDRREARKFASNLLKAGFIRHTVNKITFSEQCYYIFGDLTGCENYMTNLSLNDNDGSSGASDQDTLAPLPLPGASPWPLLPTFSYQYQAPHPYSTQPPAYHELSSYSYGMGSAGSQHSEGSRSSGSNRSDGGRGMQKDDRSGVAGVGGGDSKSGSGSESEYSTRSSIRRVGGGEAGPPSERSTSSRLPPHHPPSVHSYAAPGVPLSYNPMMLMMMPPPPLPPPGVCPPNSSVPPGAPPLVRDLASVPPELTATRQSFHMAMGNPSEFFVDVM
Assay: co-IP; HEK293T cells transfected for 24 h; lysis in 150 mM NaCl, 50 mM Tris-HCl pH 7.5, 1% Triton X-100; precipitation with anti-myc agarose beads, 2 h at 4 °C; five washes with 500 mM NaCl; blots with anti-myc or anti-Flag

B1: Flag-Lurap1 (zebrafish leucine repeat adaptor protein 1, full-length) (protein, UniProt A7MC09 1-286)
chain: MEESNNTCESVPDLKDLELKVGRKTPEGLLKWMREEHKMVSHHQTDNNETEKKGLDGKIRKLKMEMAHLRAADVKILNQLLALHEGIEAVKWLLEERGALTSRCSSLTSSQYSLGEGPDTSWRGSWSSLQDPHDELDNISIGSYLDTLADELDEYCPSSGTESMLCATPMGTGGGVSSSTGSGSRPPQVKTDATKEEAQVWNKAPSETARVNKTNGTLDKTATQLVSSDSPRACLAEKLGKNLSPKVKPYKNGKVELESCKKNGKVQLEYDAHWRWVQSQDDVTFL
- binding: binds
